The text below walks through data of PMC12508185.

No constants are given. Whether binding was seen depends on the method and setting. In cells and extracts the contact can be indirect. These calls come from enrichment with a bait or labelling near it, and not all partners need be listed. Where a sequence is shown, tags or fusion partners need not be part of it.

In this test the target is T1, SRAS1.1-His fusion protein (Arabidopsis thaliana) (UniProt Q9FKX5).
T1 sequence: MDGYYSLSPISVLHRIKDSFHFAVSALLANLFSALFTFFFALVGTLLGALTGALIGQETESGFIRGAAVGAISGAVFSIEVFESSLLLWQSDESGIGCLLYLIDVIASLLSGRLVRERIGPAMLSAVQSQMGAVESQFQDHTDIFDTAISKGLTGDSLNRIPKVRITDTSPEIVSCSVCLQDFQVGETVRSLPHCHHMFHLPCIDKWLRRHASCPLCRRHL
The experiment in a line: affinity purification with mass spectrometry; SRAS1.1-His fusion protein incubated with total protein of 7-day-old wild-type seedlings with and without 250 mM mannitol; lysis buffer 50 mM Tris-HCl pH 7.5, 150 mM NaCl, 1% Triton X-100, 5 mM EDTA; agarose beads coupled with anti-His antibody, overnight at 4 °C; LC-MS/MS of the gel sample; only the target purified.

B1: DSK2B, endogenous (protein, UniProt Q9SII8 1-551)
chain: MGGEGDSSQPQSGEGEAVAVNIRCSNGTKFSVKTSLDSTVESFKELVAQSSDVPANQQRLIYKGRILKDDQTLLSYGLQADHTIHMVRGSAPSSAPPPAPAASQTTAPSVTRGVGSDNSSNLGGASPGESLFPGLGFNPLGGGNAMSGLFGAGLPDLVQTQQQLAQNPNMIRDMMNTPAIQNLMNNPEFMRSMIMNNPQMRELVDRNPELGHVLNDPSILRQTLEAARNPELMREMMRNTDRAMSNIESMPEGFNMLRRMYENVQEPLMNATTMSGNAGNNTGSNPFAALLGNQGVTTQGSDASNNSSTPNAGTGTIPNANPLPNPWGATGGQTTAPGRTNVGGDARSPGLGGLGGLGSLGGLGGLGMLGADSPLGATPDASQLSQLLQNPAISQMMQSVFSNPQYMNQLMSLNPQLRSMLDSNPQLREMMQNPDFLRQFSSPEMMQQMMTLQQSLSQNRNTASQDAGQTGAATGNNGGLDLLMNMFGSLGAGGLSGTNQSNVPPEERYATQLQQLQEMGFYDRAENIRALLATNGNVNAAVERLLGSIGQ
In the case of B1, the binding entry is reported as “binds”.

B2: DSK2A (DOMINANT SUPPRESSOR OF KAR 2A), endogenous (protein, UniProt Q9SII9 1-538)
chain: MGGEADSRQPLTAEGVAVAVNVRCSNGTKFSVTTSLDSTVESFKELIAQNSDVPANQQRLIYKGRILKDDQTLLSYGLQADHTVHMVRGFVPSSPSAPAANAGNQTTAPQAVGSNDSSNLGGGESLFPGLGFNPLGGGNAMAGLFGSGLPDLEQAQQQLAQNPNMIREMMNTPAIQNLMNNPEFMRSMIMNNPQMRELVDRNPELGHVLNDPSILRQTLEAARNPELMREMMRNTDRAMSNIESMPEGFNMLRRMYENVQEPLMNATTMSENAGNNTSSNPFAALLGNQGVTTQGSDTSNNISAPNAETGTPNANPLPNPWGATAGQTTAPGRTNAGLGGLGGLGGLGGLGMLGADSPLGATPDASQLSQILQNPAMSQMMQSVLSNPQYMNQLMSLNPQLRSMLDMNPQLREMMQNPDFLRQFSSPEMMQQMMSLQQSLFSQNRNTAGQDPTQTGAATGTANNGGLDLLMNMFGSLGAGGLSGTNQPNVPPEERFATQLQQLQEMGFYDRAENIRALLATNGNVNAAVERLLGSIGQ
Turning to B2, the binding result is reported as “binds”.
